Measurements: PubChem BioAssay AID485318 (Broad Institute, 2010)
Out of some 1,400 compounds screened, fewer than 10 were called active.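 Rule for the calls: active = fluorescence-lowering compounds whose fitted half-maximal concentration is at or below ten times the highest valid dose tested; inconclusive = flat curve at 30 to 70% inhibition, or poor fit; inactive = the rest.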 The list shows a part of the results.

Amino acid sequences for entries named in this document (tags omitted). A change or cut given only in a name is not applied to a line headed by its entry.
UniProt O15379: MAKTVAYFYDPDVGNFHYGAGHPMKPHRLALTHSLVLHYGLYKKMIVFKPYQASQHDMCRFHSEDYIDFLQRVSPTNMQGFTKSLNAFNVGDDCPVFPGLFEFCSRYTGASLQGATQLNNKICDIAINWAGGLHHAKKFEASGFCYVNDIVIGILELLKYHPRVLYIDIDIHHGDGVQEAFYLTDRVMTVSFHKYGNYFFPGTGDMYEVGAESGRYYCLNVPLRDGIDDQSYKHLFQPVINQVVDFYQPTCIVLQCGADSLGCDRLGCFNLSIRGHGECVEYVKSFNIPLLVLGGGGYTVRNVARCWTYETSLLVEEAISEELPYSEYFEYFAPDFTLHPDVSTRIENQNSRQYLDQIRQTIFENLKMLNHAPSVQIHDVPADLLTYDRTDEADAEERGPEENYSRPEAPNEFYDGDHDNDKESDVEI

Molecular target: Histone deacetylase 3 (Homo sapiens) (UniProt O15379)
Experiment: HDAC3 deacetylase inhibitors, dose response, counter-screen for JMJD2C/GASC1 demethylase inhibitor project, biochemical, fluorescence, cherry-picked samples (AID 485318);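 note: enzyme preincubated with compound before substrate and trypsin were added; 0% = neutral control wells and -100% = SAHA positive control wells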
Conditions: recombinant HDAC3, fluorogenic peptide/trypsin coupled; at 12 µM (top of the series)

Compound | activity change, negative = inhibition
CC(C)(C)c1ccc(S(=O)(=O)/N=C2\C=C(NS(=O)(=O)c3ccccc3)C(=O)c3ccccc32)cc1 | inactive: 1.13%
CCC(C)(C(=O)NC1CCCC1)N(Cc1cccs1)C(C)=O (stereo not given) | inactive: -0.798%
Cc1[nH]n2c(=O)c3c(nc2c1-c1ccccc1)CCCC3 | inactive: 0.301%
COc1ccccc1/C=C/C(=O)Nc1ccc(N2CCOCC2)cc1 | inactive: 0.497%
C[C@H]1CN([C@@H](C)CO)C(=O)c2cc(NS(=O)(=O)c3ccc(Cl)cc3)ccc2O[C@@H]1CN(C)CC1CCCCC1 | inactive: -0.516%
CC(C)(C)NNC(=S)Nc1cccc(C(F)(F)F)c1 | inactive: 0.248%
CC[C@H]1CCCCc2ccccc2[C@@H](C(=O)C[C@@H](O)CC(C)=O)OC1=O | inactive: 1.23%
COCCCNC(=S)NNC(=O)c1ccccn1 | inactive: 0.84%
Cc1cc(C)n(-c2nnc(C)n2/N=C/c2ccco2)n1 | inactive: 0.301%
Cc1ccc(-c2csc(NC(=O)CSc3nc(C)cc(=O)[nH]3)n2)cc1 | inactive: 0.147%
O=Cc1ccc(C(=O)OCC(=O)Nc2ccc(F)cc2F)cc1 | inactive: 0.111%
O=C(CC1NC(=O)NC1=O)Nc1ccccc1 (stereo not given) | inactive: -0.843%
O=C(NC1CCCc2ccccc21)c1ccc(Br)cc1 (stereo not given) | inactive: 0.261%
C#CCOCCOCCOCCNc1nc(N2CCN(C(=O)CCCCCCCCCCNC(=O)[C@H](CCCCN)n3cc(CCO)nn3)CC2)nc(N2CCN(C(=O)CCCCCCCCCCNC(=O)[C@H](CCCCN)n3cc(C[C@@H](C)CC)nn3)CC2)n1 | inactive: 0.584%
CCCN1C(=O)c2ccc(C(=O)Nc3cc(C)ccc3O)cc2C1=O | inactive: 0.175%
COc1ccc(C2/C(=C(/O)c3ccccc3)C(=O)C(=O)N2CCN2CCOCC2)c(OC)c1 (stereo not given) | inactive: -0.789%
COC(=O)c1sc(S(=O)(=O)NCc2ccccc2)c(C(=O)OC)c1C | inactive: -0.0892%
O=C(c1ccncc1)N1N=C(C2CCCCC2)CC1(O)C(F)(F)F (stereo not given) | inactive: 0.32%
Cc1ccc(NC(=O)CSc2ncccn2)c([N+](=O)[O-])c1 | inactive: 0.338%
COc1ccc(NC(=O)N(C)C[C@H]2Oc3c(NC(=O)C4CCCCC4)cccc3C(=O)N([C@H](C)CO)C[C@@H]2C)cc1 | inactive: 0.0572%
CCOc1ccc(CN2CCN(Cc3nc(C(C)C)cs3)CC2CCO)cc1 (stereo not given) | inactive: -0.334%
COc1ccc(CN(Cc2nc3ccccc3c(=O)[nH]2)C(=O)NC2CCCCC2)cc1 | inactive: 1.48%
CCCCCC1CC(=O)N(Cc2ccccc2)C(=O)N1 (stereo not given) | inactive: 0.0846%
N=c1nc(-c2ccccc2)ccn1O | inactive: -0.505%
c1ccc(-c2ccccc2OCCN2CCCC2)cc1 | inactive: -0.955%
CN1CCN(Cc2c(C#N)c3ccccc3n2C)CC1 | inactive: -0.48%
COc1ccc(C2C(C#N)=C(N)Oc3c2sc2nc(C)cc(C)c32)cc1 (stereo not given) | inactive: -0.587%
CSc1ccccc1C(=O)Nc1ccc(C)c(C)c1 | inactive: -0.311%

Reformatted in CSV form: 2 of the compounds above
Compound,"activity change, negative = inhibition"
O=C(NC1CCCc2ccccc21)c1ccc(Br)cc1 (stereo not given),inactive: 0.261%
C#CCOCCOCCOCCNc1nc(N2CCN(C(=O)CCCCCCCCCCNC(=O)[C@H](CCCCN)n3cc(CCO)nn3)CC2)nc(N2CCN(C(=O)CCCCCCCCCCNC(=O)[C@H](CCCCN)n3cc(C[C@@H](C)CC)nn3)CC2)n1,inactive: 0.584%

Later entries

Compound | activity change, negative = inhibition
O=C(Nc1ccccc1)N(O)c1ccc(Cl)cc1 | inactive: -0.0344%
CC(=O)Nc1ccc(NC(=O)C2CCN(C(=O)c3cccs3)CC2)cc1 | inactive: 1.22%
C[C@H](CO)N1C[C@H](C)[C@@H](CN(C)S(=O)(=O)c2ccccc2)Oc2ccc(NS(=O)(=O)c3ccc(F)cc3)cc2C1=O | inactive: 0.496%
CS(=O)(=O)N(CC(=O)N1CCCCCC1)c1ccccc1 | inactive: 0.237%
COc1ccc(C(=O)NCc2cccnc2)cc1S(=O)(=O)N1CCOCC1 | inactive: 0.579%
Cc1cc2c(cc1C)NC(CC(=O)NCc1ccccc1)C(=O)N2 (stereo not given) | inactive: -0.289%
CCCCNC(=O)c1nn2cc(Br)cnc2c1Br | inactive: 0.783%
COc1cccc(CSc2nnc(C(F)(F)F)n2Cc2ccc(F)cc2)c1 | inactive: 0.567%
O=C(COc1ccc(NC(=O)c2ccccc2)cc1)c1ccccc1 | inactive: -0.121%
CC(C)C[C@H](NC(=O)N1CCCCCC1)C(=O)O | inactive: 0.653%
CCOC(=O)c1c(C)[nH]c(C)c1S(=O)(=O)N(C)CC(=O)N(C)Cc1ccccc1 | inactive: -0.313%
O=c1[nH]c(S)nc2sc3c(c12)CCCC3 | inactive: -1.25%
O=C1NCCN1CCNS(=O)(=O)c1ccccc1[N+](=O)[O-] | inactive: -0.167%
O=C1c2sc3nc4c(c(=O)n3c2C(=O)N1c1ccccc1)CCC4 | inactive: 0.641%
O=c1[nH]cc(N2CCCCCC2)c(=O)[nH]1 | inactive: -0.0271%
C[C@@H](CN1CCC[C@H]1CN1C(N)=NC[C@@H]1Cc1ccccc1)N1C[C@@H](Cc2ccccc2)N(CCc2ccc(Cl)c(Cl)c2)C1=N | inactive: -0.0869%
CC(C)NC(=O)Nc1ccc2c(c1)C(=O)N([C@H](C)CO)C[C@H](C)[C@@H](CN(C)C(=O)Nc1ccccc1)O2 | inactive: -0.351%
Cc1cccc(-n2c(SCC(=O)Nc3ccc4c(c3)OCO4)nnc2-c2ccoc2C)c1 | inactive: -0.505%
C#CCOCCOCCOCCNc1nc(N2CCOCC2)nc(N2CCN(C(=O)[C@H](CCCN=C(N)N)n3cc(C(N)[C@@H](C)CC)nn3)CC2)n1 (stereo not given in full) | inactive: 0.32%
Cc1ccc(C(=O)NCc2ccco2)cc1Br | inactive: 0.47%
N#Cc1ccc(C23OCCN2CCn2nc4ccccc4c23)cc1 (stereo not given) | inactive: 0.331%
COc1ccc(NC(=O)N(C)C[C@H]2Oc3c(NS(=O)(=O)c4cn(C)cn4)cccc3C(=O)N([C@H](C)CO)C[C@@H]2C)cc1 | inactive: 0.831%
O=C(Nc1ccccc1)N1CCSCC1 | inactive: 0.906%
COc1ccc(OC)c(/C=C/C(=O)Nc2cccc(S(=O)(=O)NC3=NCCCCC3)c2)c1 | inactive: -0.822%
O=C(O)CCCC(=O)Nc1ccc(C(=O)NCc2cccnc2)cc1 | inactive: 0.498%
Cc1nnnn1/C(=C\c1ccccc1)C(=O)OCC(=O)NC(C)(C)C | inactive: 0.891%
O=C(Cc1ccccc1Cl)N1CCN(c2ccccn2)CC1 | inactive: -0.0317%
